In experiment [1] the target is mouse lymphotoxin beta receptor (mouse) (UniProt P50284). The experiment is described as follows: flow cytometry on MC38 cells, detected with PE-conjugated anti-human CD258 (LIGHT) antibody.
For experiment [2], the target named is human lymphotoxin beta receptor (LTbR) (human, UniProt P36941 31-435). Briefly: flow cytometry on A375 cells, detected with PE-conjugated anti-human CD258 (LIGHT) antibody.

By UniProt entry, the sequences of proteins in these tests, tags left out. Residues count along the entry.
UniProt P50284, residues 31-415: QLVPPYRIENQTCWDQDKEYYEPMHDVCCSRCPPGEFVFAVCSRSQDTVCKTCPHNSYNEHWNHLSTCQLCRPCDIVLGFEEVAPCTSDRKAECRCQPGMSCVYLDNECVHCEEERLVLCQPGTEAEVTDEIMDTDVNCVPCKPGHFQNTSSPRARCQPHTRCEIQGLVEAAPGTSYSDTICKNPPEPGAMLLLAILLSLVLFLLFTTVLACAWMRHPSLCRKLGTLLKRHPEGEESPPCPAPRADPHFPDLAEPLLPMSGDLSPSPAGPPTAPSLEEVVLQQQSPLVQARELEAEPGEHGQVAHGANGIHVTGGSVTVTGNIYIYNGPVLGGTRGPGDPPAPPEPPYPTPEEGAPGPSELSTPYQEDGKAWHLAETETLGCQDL
UniProt P36941, residues 31-435: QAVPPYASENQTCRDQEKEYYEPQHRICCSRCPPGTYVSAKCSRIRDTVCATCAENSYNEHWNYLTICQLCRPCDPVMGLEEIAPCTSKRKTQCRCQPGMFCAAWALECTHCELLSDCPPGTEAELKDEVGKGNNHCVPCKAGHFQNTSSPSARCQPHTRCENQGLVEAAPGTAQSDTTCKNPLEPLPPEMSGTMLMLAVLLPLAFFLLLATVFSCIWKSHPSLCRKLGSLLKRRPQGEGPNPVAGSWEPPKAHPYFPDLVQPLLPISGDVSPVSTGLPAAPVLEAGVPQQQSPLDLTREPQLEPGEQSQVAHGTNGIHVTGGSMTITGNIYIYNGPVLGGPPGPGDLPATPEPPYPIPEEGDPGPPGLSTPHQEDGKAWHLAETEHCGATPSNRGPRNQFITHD

These are yes or no findings as the source states them, for the method shown. Some results given as binding are weak or reduced against the parent protein; the word gives no strength.

B1: ProC1487 + uPa (ligand, not shown: small tags and cut ends)
chain: GGSQERRSHEVNPAAHLTGANSSLTGSGGPLLWETQLGLAFLRGLSYHDGALVVTKTGYYYIYSKVQLGGVGCPLGLAGTITHGLYKRTPRYPEELELLVSQQSPCGRATSSSRVWWDSSFLGGVVHLEAGEEVVVRVLGKRLVRLRDGTRSYFGAFMVSSAGGGSSGGS
B1: the binding entry in experiment [1] and in experiment [2] was “binds” throughout.

The values are drawn from patent US20240398920A1 (CYTOMX THERAPEUTICS, published 2024).
